Laboratory results as given in PMC8647013.
These are yes or no findings as the source states them, for the method shown. In cells and extracts the contact can be indirect. Some binding calls cover weakened binding; strength is not graded here.

The chains behind the UniProt entries cited, without tags or fusion partners. Where a name states a change or a piece, a line headed by the entry shows the natural chain unless it says otherwise.
UniProt Q9HC35: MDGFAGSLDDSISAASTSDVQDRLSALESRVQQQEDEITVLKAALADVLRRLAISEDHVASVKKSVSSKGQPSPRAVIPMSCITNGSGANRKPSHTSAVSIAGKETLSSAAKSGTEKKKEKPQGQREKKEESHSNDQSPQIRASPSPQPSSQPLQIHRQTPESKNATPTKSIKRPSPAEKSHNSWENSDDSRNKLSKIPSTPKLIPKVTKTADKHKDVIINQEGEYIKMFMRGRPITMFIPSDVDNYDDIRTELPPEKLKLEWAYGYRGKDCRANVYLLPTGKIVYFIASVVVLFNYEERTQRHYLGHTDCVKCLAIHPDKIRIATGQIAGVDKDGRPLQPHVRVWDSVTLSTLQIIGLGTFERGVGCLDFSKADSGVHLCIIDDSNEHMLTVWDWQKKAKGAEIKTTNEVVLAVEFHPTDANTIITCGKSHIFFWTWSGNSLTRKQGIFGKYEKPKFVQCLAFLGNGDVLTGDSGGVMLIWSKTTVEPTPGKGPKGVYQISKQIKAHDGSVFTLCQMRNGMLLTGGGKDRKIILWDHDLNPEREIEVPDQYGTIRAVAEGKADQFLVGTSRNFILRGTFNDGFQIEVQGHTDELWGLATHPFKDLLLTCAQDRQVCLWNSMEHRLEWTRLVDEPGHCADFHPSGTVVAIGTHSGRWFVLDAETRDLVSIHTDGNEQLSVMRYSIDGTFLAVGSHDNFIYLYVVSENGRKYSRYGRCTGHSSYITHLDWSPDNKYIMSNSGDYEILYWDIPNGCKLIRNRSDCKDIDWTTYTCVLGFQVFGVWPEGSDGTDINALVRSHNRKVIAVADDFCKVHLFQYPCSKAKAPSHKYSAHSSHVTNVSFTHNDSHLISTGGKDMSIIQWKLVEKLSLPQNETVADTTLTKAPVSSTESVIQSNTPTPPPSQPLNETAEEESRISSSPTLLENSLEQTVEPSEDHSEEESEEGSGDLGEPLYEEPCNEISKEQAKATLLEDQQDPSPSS
UniProt Q9UM73: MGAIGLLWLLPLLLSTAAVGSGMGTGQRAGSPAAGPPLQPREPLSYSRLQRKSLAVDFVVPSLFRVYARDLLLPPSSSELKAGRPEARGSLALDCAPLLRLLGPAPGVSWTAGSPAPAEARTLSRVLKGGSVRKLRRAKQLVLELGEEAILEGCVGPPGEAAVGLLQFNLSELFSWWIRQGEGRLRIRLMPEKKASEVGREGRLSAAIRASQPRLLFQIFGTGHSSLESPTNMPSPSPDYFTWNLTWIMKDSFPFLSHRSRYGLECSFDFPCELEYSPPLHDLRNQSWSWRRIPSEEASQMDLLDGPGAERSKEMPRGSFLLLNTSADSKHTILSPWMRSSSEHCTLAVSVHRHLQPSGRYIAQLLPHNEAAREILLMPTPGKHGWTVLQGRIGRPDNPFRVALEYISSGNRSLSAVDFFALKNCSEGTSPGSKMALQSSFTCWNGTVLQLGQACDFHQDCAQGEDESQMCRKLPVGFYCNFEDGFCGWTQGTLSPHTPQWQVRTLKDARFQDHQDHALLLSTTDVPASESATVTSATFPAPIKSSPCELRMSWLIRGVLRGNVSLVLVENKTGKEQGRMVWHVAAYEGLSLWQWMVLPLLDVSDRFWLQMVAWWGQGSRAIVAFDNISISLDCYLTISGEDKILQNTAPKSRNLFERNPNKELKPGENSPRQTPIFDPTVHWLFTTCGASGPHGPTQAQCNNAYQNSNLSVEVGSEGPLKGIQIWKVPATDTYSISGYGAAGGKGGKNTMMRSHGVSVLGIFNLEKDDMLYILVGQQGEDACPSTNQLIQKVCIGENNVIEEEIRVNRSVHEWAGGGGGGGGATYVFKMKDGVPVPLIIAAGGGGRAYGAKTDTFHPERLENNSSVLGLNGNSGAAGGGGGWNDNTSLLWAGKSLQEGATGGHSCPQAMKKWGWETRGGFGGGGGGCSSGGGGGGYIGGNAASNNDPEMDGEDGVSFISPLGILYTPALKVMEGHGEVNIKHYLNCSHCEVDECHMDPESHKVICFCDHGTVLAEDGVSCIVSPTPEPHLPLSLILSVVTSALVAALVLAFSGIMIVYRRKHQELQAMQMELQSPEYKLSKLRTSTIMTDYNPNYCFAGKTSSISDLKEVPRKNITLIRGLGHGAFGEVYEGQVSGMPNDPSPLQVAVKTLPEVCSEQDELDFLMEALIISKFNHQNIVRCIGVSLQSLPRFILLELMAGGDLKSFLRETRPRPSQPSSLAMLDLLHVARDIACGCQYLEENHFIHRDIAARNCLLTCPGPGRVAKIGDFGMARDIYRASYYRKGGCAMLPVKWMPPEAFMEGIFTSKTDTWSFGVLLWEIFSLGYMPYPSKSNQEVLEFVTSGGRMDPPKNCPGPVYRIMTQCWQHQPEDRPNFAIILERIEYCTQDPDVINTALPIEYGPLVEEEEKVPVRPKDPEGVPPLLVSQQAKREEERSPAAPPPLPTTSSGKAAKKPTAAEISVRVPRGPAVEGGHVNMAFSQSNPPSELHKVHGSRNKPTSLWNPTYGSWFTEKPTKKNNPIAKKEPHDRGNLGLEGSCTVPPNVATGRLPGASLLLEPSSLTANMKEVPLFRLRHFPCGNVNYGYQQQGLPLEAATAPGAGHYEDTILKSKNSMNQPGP
UniProt P62993: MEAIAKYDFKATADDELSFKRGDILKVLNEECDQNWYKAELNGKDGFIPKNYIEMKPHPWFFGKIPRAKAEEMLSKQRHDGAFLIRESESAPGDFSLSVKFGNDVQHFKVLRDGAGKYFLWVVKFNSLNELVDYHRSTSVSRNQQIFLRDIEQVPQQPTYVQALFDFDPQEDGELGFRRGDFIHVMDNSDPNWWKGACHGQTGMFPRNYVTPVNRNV

How the values were obtained:
[1] = biological target: T1, EML4‐ALK V3 (doxycycline-induced, Beas2B V3 cells) (human) (UniProt Q9HC35+Q9UM73); test: condition: only cells treated with ALK inhibitors (ceritinib 500 nM, alectinib 100 nM or lorlatinib 100 nM) for 4 h; proximity ligation; Duolink in situ PLA with GRB2 and ALK antibodies in fixed, permeabilised H2228 and Beas2B V3 cells; cells treated with ALK inhibitors (ceritinib, alectinib or lorlatinib) for 4 h before fixation
[2] = biological target: T1, EML4‐ALK V3 (doxycycline-induced, Beas2B V3 cells) (human); test: proximity ligation; Duolink in situ PLA with GRB2 and ALK antibodies in fixed, permeabilised H2228 and Beas2B V3 cells; DMSO control cells

GRB2 (from UniProt P62993 1-217) was tested, and the binding [1] was “no binding” and the binding [2] was “binds”.
